Experimental data published in patent US20050158425A1, “Thin mouthfeel calcium-fortified beverage containing calcium lactate gluconate citrate” (PURAC BIOCHEM BV, priority 2003, published 2005).

Tests used:
[1] = Comparative taste tests by a test panel; settings: compared to a blank; for taste, calcium lactate gluconate sample vs calcium lactate gluconate citrate sample: mineral water containing 10% RDI calcium/serving
[2] = Triangle tests in mineral water with test panels; settings: test panels of 19 and 12 persons

SMILES	taste, calcium lactate gluconate sample vs calcium lactate gluconate citrate sample [1]	triangle test, difference from mineral water [2]	taste, calcium lactate gluconate citrate sample vs calcium lactate gluconate sample ([1]; apple juice containing 30% RDI calcium/serving)
CC(O)C(=O)[O-].O=C([O-])[C@H](O)[C@@H](O)[C@H](O)[C@H](O)CO.[Ca+2] [Calcium lactate gluconate, calcium lactate gluconate]	no difference in taste	None of the tests showed significant difference	–
O=C(O)[C@H](O)[C@@H](O)[C@H](O)[C@H](O)CO.O=C([O-])CC(O)(CC(=O)[O-])C(=O)O.[Ca+2] [calcium gluconate citrate]	–	None of the tests showed significant difference	–
CC(O)C(=O)O.O=C(O)[C@H](O)[C@@H](O)[C@H](O)[C@H](O)CO.O=C([O-])CC(O)(CC(=O)[O-])C(=O)O.[Ca+2] [calcium lactate gluconate citrate]	no difference in taste	–	better in taste
